PubChem BioAssay AID652272 | Drosophila RNAi Screening Center | 2013
In all, the deposit lists about 21,000 reagents; below is an unselected part of those with a known target gene and a result. Of all reagents, 503 (2.4%) are marked active. 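Raw plate light values, not normalised; calls rest on replicate z-scores that were not deposited; hits include reporter decreases as well as increases.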 The record does not give: the amount of reagent, the time to read-out.

Screen: 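Finding fly genes that regulate Hedgehog signal transduction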 (primary screen)
Cell system: Drosophila clone 8 (Cl8) cells
Reagents: long dsRNA against Drosophila genes
Read-out: 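Plate reader light from a firefly reporter under a ptc promoter fragment that responds to Hedgehog, with Renilla light as transfection reference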
Scale: firefly Hh reporter signal: higher = more ptc reporter light; Renilla reference signal: higher = more Renilla control light
Active means: 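Hit when the z-score averaged over two replicates is under -2 or over +3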
Meaning of the calls: active = hit: reporter lowered or raised; inactive = not a hit

The first 5 entries, ahead of the listing:
target gene | DRSC id | firefly Hh reporter signal, replicate 1 | firefly Hh reporter signal, replicate 2 | firefly Hh reporter signal, replicate 3 | Renilla reference signal, replicate 1 | Renilla reference signal, replicate 2 | Outcome
Rfk (GeneID 40936) | DRSC15454 | 1.27e5 | 90576 | – | 5065 | 3512 | inactive
Obp73a (GeneID 2768955) | DRSC09907 | 1.09e5 | – | – | 4610 | 3201 | inactive
CG10031 (GeneID 33594) | DRSC00286 | 1.80e5 | 58288 | – | 4689 | 6458 | inactive
CG14135 (GeneID 39316) | DRSC10140 | 44796 | 73056 | 59392 | 8368 | 4763 | inactive
CG15237 (GeneID 35591) | DRSC04971 | 1.26e5 | 52416 | – | 3474 | 4628 | inactive

Main list, from the first entry:
target gene | DRSC id | firefly Hh reporter signal, replicate 1 | firefly Hh reporter signal, replicate 2 | firefly Hh reporter signal, replicate 3 | Renilla reference signal, replicate 1 | Renilla reference signal, replicate 2 | Outcome
Rfk (GeneID 40936) | DRSC15454 | 1.27e5 | 90576 | – | 5065 | 3512 | inactive
Obp73a (GeneID 2768955) | DRSC09907 | 1.09e5 | – | – | 4610 | 3201 | inactive
CG10031 (GeneID 33594) | DRSC00286 | 1.80e5 | 58288 | – | 4689 | 6458 | inactive
CG14135 (GeneID 39316) | DRSC10140 | 44796 | 73056 | 59392 | 8368 | 4763 | inactive
CG15237 (GeneID 35591) | DRSC04971 | 1.26e5 | 52416 | – | 3474 | 4628 | inactive
COX5A (GeneID 41432) | DRSC16611 | 69091 | 96349 | – | 1665 | 2098 | inactive
CG5281 (GeneID 41375) | DRSC15761 | 66219 | 1.18e5 | – | 1981 | 2544 | inactive
Or85a (GeneID 40991) | DRSC16764 | 96421 | 1.20e5 | – | 4009 | 3042 | inactive
CG10019 (GeneID 33600) | DRSC00279 | 1.36e5 | 33785 | – | 3094 | 3254 | inactive
CG32590 (GeneID 318103) | DRSC19594 | 93612 | 2.06e5 | – | 2757 | 8560 | inactive
CG10737 (GeneID 37202) | DRSC05999 | 1.01e5 | 75738 | – | 5272 | 3379 | inactive
hebe (GeneID 36011) | DRSC05192 | 1.50e5 | 3.13e5 | – | 3632 | 13296 | inactive
hebe (GeneID 36011) | DRSC06605 | 1.22e5 | 6.61e5 | 1.08e5 | 5463 | 38833 | inactive
CG13131 (GeneID 34334) | DRSC02227 | 1.27e5 | 25334 | – | 3088 | 4205 | inactive
CG30026 (GeneID 246399) | DRSC05276 | 1.53e5 | 3.25e5 | – | 4163 | 10588 | inactive
Cyp9b1 (GeneID 35634) | DRSC07389 | 80997 | 58563 | – | 2032 | 4169 | inactive
CG43077 (GeneID 12797990) | DRSC19168 | 7.19e5 | 1.92e5 | – | 42368 | 3783 | inactive
TfIIFalpha (GeneID 40790) | DRSC12608 | 70922 | 48199 | – | 2651 | 1792 | inactive
Teh3 (GeneID 50170) | DRSC08537 | 83933 | 41740 | – | 2763 | 2912 | inactive
CG5321 (GeneID 32399) | DRSC19940 | 1.53e5 | 3.27e5 | – | 4486 | 11655 | inactive
Ca-alpha1D (GeneID 34950) | DRSC03284 | 78252 | 53874 | – | 4820 | 2650 | inactive
CG31643 (GeneID 318867) | DRSC00906 | 5.09e5 | 1.62e5 | – | 26475 | 7122 | inactive
CG7402 (GeneID 39994) | DRSC10839 | 1.33e5 | – | – | 2480 | 6203 | inactive
Nufip (GeneID 40043) | DRSC10397 | 1.06e5 | 41440 | – | 3433 | 1674 | inactive
Nubp1 (GeneID 35000) | DRSC02639 | 65322 | 41959 | – | 2610 | 1745 | inactive
CG17574 (GeneID 36415) | DRSC06681 | 1.22e5 | 8.65e5 | 72699 | 2586 | 48432 | inactive
Scsalpha2 (GeneID 42326) | DRSC16003 | 1.07e5 | 98491 | – | 3947 | 3720 | inactive
Dcp-1 (GeneID 37729) | DRSC04609 | 1.19e5 | 78105 | – | 4509 | 3719 | inactive
Gr59e (GeneID 37725) | DRSC04276 | 78995 | 54246 | – | 1956 | 4949 | inactive
Gr57a (GeneID 37347) | DRSC06401 | 90873 | 62048 | – | 2997 | 4227 | inactive
CG9168 (GeneID 38163) | DRSC08633 | 71409 | 28043 | – | 2100 | 2200 | inactive
Tango9 (GeneID 41450) | DRSC14173 | 1.37e5 | 1.03e5 | – | 5142 | 4336 | inactive
l(2)SH0834 (GeneID 34386) | DRSC02854 | 69352 | 34557 | – | 2361 | 4096 | inactive
CG12594 (GeneID 41416) | DRSC14532 | 1.27e5 | 1.38e5 | – | 4456 | 3719 | inactive
CG12934 (GeneID 36124) | DRSC06247 | 71171 | 52935 | – | 1600 | 3827 | inactive
CG10472 (GeneID 38688) | DRSC09730 | 1.10e5 | 1.00e5 | – | 5005 | 3848 | inactive
CG15784 (GeneID 31461) | DRSC18090 | 52691 | 1.64e5 | – | 1228 | 6995 | inactive
sand (GeneID 35777) | DRSC07245 | 59473 | 42898 | – | 1584 | 4209 | inactive
CG32454 (GeneID 318037) | DRSC11652 | 1.04e5 | 67213 | – | 4115 | 2986 | inactive
Ir60a (GeneID 37881) | DRSC04212 | 76720 | 56816 | – | 1882 | 5047 | inactive
CG32809 (GeneID 31121) | DRSC18507 | 2.12e5 | 5.82e5 | 1.04e5 | 4981 | 27841 | inactive
CG32809 (GeneID 31121) | DRSC18592 | 1.13e5 | 93447 | – | 2752 | 3378 | inactive
Ccp84Af (GeneID 40820) | DRSC12591 | 78417 | 75725 | – | 2544 | 2345 | inactive
Fie (GeneID 38452) | DRSC08158 | 1.20e5 | 1.28e5 | – | 4836 | 4864 | inactive
CG1213 (GeneID 40728) | DRSC12191 | 85505 | 1.27e5 | – | 3385 | 3530 | inactive
Cpr30B (GeneID 34270) | DRSC02728 | 1.21e5 | 52886 | – | 3421 | 5244 | inactive
Clc (GeneID 40221) | DRSC11116 | 99827 | 94087 | – | 3664 | 3532 | inactive
fzr (GeneID 45922) | DRSC18781 | 68343 | 1.53e5 | – | 1706 | 5961 | inactive
CG14715 (GeneID 41403) | DRSC14938 | 1.02e5 | 98022 | – | 3824 | 4152 | inactive
Plp (GeneID 3772382) | DRSC10006 | 1.54e5 | – | – | 6944 | 4390 | inactive
Plp (GeneID 3772382) | DRSC10333 | 90292 | – | – | 1997 | 2388 | inactive
Plp (GeneID 3772382) | DRSC10700 | 69296 | 59942 | – | 2728 | 2756 | inactive
a (GeneID 43852) | DRSC04667 | 31664 | 20551 | – | 1088 | 2400 | inactive
a (GeneID 43852) | DRSC04668 | 75536 | 57895 | – | 1709 | 4949 | inactive
drl (GeneID 44355) | DRSC03523 | 87152 | 62503 | – | 3256 | 2717 | inactive
dimm (GeneID 35404) | DRSC03100 | 1.04e5 | 54502 | – | 2486 | 5116 | inactive
Cpr72Ea (GeneID 39814) | DRSC10451 | 1.15e5 | 63811 | – | 4706 | 2533 | inactive
